Source: paper doi:10.1101/2023.07.11.548643
Results are given in words; binding and its absence hold for the method and conditions named. Binding seen in cells or lysates may run through a third protein. These calls come from enrichment with a bait or labelling near it, and not all partners need be listed.

Protein sequences, listed by entry. Tags and fused reporters are not part of them.
UniProt P04198: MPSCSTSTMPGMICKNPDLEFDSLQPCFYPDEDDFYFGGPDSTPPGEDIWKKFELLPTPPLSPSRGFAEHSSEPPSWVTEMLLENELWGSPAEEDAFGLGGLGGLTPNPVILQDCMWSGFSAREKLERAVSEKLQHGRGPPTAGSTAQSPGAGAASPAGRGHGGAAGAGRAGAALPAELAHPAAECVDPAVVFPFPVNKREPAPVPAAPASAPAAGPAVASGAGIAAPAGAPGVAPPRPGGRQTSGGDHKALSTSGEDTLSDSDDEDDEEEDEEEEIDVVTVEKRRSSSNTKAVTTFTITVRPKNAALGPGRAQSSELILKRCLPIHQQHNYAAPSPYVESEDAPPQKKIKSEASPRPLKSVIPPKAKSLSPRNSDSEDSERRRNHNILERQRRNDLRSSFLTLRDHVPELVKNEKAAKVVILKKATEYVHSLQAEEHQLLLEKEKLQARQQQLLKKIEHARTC
UniProt Q96KQ7: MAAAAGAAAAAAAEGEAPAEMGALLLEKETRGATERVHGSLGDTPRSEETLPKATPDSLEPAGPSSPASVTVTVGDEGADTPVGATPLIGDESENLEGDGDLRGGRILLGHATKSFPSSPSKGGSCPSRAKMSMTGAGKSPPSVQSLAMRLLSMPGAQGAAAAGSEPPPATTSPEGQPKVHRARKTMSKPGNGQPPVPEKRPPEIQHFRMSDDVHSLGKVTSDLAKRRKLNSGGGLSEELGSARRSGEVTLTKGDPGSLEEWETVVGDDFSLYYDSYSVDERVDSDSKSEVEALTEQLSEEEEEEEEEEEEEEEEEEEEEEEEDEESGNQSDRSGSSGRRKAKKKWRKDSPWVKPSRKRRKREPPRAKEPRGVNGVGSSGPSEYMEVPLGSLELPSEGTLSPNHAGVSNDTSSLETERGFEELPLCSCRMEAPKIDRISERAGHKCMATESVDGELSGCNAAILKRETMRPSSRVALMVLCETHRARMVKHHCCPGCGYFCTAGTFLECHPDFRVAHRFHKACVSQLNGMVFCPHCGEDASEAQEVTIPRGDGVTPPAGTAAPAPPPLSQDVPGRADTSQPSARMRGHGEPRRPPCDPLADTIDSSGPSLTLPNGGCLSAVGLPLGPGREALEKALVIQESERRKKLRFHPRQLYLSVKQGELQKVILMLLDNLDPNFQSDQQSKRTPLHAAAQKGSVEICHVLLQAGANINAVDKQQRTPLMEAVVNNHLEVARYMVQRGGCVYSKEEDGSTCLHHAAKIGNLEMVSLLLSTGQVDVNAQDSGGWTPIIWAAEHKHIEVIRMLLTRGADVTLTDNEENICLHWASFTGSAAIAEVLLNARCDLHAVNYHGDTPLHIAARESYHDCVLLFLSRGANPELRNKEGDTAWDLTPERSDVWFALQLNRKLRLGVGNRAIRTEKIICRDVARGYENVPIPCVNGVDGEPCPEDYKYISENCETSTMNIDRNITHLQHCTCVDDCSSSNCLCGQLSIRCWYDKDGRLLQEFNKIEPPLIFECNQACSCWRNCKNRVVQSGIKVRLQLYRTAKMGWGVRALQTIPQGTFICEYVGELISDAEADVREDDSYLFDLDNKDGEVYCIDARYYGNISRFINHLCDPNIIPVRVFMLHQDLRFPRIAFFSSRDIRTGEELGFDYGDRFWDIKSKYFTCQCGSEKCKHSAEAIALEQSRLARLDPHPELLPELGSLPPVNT
UniProt Q9Y4A5: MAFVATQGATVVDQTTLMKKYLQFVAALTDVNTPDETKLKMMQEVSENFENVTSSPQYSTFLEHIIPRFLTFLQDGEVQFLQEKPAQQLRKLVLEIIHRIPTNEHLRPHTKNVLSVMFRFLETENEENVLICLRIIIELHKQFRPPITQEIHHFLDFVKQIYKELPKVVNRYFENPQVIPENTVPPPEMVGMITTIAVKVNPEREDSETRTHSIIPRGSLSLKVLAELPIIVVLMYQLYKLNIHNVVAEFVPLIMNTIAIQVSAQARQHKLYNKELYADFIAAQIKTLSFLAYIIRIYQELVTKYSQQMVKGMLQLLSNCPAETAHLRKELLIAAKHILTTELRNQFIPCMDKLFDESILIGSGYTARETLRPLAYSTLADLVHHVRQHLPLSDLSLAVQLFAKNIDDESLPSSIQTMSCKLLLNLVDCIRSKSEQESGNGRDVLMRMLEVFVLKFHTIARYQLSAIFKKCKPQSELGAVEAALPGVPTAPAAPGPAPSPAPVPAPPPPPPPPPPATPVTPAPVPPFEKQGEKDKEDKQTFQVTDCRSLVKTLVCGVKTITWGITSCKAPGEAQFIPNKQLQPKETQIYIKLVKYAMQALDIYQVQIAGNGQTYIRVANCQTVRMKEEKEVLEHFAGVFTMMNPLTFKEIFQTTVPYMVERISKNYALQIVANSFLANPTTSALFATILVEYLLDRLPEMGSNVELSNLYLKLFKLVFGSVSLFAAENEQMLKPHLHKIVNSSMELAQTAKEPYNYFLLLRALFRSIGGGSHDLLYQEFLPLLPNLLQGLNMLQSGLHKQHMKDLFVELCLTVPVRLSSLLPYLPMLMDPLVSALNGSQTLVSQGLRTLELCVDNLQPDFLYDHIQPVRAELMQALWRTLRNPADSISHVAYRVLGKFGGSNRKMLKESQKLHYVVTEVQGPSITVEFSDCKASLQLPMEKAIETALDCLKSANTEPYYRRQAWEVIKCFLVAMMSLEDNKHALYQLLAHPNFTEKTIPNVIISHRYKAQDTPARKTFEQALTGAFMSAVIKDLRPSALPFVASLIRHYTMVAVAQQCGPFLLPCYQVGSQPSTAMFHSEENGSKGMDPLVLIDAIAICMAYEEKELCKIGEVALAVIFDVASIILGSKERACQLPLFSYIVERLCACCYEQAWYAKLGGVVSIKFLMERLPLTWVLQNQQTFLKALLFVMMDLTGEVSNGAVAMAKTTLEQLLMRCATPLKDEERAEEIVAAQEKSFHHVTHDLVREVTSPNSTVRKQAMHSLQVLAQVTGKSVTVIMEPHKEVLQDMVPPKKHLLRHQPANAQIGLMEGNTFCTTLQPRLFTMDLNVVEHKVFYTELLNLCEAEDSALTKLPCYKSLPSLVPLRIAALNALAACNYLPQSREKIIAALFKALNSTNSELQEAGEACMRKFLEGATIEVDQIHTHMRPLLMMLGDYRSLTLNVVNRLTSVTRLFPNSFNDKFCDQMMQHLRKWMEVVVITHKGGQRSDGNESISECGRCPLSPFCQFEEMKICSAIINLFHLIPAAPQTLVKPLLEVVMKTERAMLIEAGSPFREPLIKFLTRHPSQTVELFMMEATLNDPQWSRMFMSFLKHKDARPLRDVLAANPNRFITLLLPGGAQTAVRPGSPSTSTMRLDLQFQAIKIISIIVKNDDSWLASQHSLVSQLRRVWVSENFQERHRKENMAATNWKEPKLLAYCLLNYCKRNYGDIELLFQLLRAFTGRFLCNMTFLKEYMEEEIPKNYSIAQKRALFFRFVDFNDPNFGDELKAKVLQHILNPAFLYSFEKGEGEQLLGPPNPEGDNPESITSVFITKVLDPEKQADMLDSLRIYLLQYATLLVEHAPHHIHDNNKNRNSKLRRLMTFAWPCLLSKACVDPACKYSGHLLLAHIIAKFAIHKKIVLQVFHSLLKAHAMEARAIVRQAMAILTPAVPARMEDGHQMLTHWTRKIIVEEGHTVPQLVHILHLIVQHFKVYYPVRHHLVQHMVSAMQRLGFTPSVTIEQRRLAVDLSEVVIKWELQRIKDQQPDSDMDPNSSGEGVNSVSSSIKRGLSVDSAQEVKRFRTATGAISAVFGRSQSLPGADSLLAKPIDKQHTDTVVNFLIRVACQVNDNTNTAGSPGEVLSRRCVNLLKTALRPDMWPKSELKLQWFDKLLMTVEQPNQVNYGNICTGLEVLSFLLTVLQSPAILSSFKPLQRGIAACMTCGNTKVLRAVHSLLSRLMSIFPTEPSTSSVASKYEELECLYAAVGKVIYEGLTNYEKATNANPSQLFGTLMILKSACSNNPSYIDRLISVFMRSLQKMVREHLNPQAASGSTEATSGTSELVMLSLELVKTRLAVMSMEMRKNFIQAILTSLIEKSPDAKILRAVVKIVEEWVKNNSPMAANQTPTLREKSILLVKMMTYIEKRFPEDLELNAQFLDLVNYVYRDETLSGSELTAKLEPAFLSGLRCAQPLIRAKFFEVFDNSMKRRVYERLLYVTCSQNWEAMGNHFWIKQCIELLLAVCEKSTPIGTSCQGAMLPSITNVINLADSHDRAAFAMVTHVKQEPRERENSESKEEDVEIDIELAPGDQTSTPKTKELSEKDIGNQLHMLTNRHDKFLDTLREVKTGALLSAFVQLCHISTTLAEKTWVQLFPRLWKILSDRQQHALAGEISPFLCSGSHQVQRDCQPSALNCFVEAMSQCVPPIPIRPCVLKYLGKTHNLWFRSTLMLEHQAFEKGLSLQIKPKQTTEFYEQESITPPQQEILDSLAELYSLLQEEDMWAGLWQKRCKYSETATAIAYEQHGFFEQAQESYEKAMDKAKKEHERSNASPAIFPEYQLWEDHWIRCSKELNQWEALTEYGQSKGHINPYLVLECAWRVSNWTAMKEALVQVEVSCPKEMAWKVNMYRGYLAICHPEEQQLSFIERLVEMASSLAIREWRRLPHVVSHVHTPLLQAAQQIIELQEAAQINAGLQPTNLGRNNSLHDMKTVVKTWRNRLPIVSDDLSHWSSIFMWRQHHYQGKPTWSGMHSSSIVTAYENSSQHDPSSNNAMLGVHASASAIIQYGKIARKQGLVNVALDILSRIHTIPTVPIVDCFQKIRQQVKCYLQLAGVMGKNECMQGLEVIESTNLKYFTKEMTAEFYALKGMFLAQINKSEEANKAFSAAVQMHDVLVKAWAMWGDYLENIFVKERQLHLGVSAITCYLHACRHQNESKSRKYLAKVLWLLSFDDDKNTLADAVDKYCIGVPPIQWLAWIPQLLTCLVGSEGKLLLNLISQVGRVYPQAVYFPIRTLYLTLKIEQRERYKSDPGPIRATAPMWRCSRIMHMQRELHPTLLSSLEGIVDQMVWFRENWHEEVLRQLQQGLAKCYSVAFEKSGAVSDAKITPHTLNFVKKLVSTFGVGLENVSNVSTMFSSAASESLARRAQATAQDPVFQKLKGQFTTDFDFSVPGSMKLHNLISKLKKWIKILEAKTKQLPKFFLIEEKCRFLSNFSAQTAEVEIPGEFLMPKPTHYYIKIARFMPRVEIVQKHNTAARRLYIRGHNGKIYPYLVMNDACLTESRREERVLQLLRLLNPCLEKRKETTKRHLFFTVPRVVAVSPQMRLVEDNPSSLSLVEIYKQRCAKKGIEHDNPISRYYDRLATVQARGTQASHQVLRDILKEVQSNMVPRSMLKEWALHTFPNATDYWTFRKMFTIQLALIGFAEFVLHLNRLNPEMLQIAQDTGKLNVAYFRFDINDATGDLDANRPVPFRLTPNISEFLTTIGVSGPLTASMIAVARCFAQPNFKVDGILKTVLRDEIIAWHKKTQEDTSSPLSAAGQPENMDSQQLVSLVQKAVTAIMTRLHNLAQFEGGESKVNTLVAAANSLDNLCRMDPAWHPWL
UniProt P61244: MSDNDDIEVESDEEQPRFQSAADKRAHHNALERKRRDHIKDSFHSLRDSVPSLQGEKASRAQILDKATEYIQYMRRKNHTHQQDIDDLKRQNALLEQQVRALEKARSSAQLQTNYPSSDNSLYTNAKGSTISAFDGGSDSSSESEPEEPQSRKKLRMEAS

Molecular target: MYCN (human (endogenous in IMR32)) (UniProt P04198)
Assay: affinity purification with mass spectrometry; endogenous MYCN precipitated from IMR32 lysate (20 mg; 50 mM pH 7.5 Tris-HCl, 137 mM NaCl, 1 mM DTT, 1 mM EDTA, 0.5% Triton X-100) with two different MYCN antibodies or normal IgG on Dynabeads M-280 sheep anti-mouse IgG, 4°C, 4 h; differentially pulled-down gel bands sequenced by mass spectrometry; no Benzonase added

Substance	binding
G9a (from UniProt Q96KQ7 1-1210)	binds
TRRAP (from UniProt Q9Y4A5 1-3859)	binds
topoisomerase IIB (from UniProt Q02880 1-1626)	binds
MAX (from UniProt P61244 1-160)	binds
